Reference: the supplement of paper PMC12819154, “High-throughput peptide-centric local stability assay extends protein–ligand identification to membrane proteins, tissues and bacteria” (Nature Structural & Molecular Biology, 2025)
The other results are listed elsewhere or left out. Most entries show no effect beyond the scatter of the controls.

compound: CN[C@@H]1C[C@H]2O[C@@](C)([C@@H]1OC)n1c3ccccc3c3c4c(c5c6ccccc6n2c5c31)C(=O)NC4 [staurosporine]; assay: log2 fold change of pooled soluble protein (PISA), ligand vs vehicle (log2 ratio); higher = more thermally stabilized; conditions: ligand concentration: 20 uM; assay format: PISA pool 52.9/55.5/58.6 C

| Target | log2 fold change of pooled soluble protein |
| --- | --- |
| UniProt Q9DBX3 | -0.012 |
| UniProt Q9CYH2 | 0.166 |
| UniProt Q9CYI4 | 0.173 |
| UniProt Q9DB00 | 0.0149 |
| UniProt Q9D1L0 | 0.0245 |
| UniProt Q9CZY3 | -0.215 |
| UniProt Q9D8T4 | 0.174 |
| UniProt Q9CZB3 | -0.042 |
| UniProt Q9DC29 | 0.00488 |
| UniProt Q9D9M5 | 0.0213 |
| UniProt Q9D826 | -0.0527 |
| UniProt Q9D9V3 | 0.0363 |
| UniProt Q9D824 | -0.165 |
| UniProt Q9D0B5 | -0.059 |
| UniProt Q9D6Y9 | -0.188 |
| UniProt Q9DBU0 | -0.00849 |
| UniProt Q9CZB0 | 0.202 |
| UniProt Q9D0K2 | -0.611 |

Reprinted at random: 3 entries already listed

| Target | log2 fold change of pooled soluble protein |
| --- | --- |
| UniProt Q9CZY3 | -0.215 |
| UniProt Q9D1L0 | 0.0245 |
| UniProt Q9D9V3 | 0.0363 |

Carrying on:

| Target | log2 fold change of pooled soluble protein |
| --- | --- |
| UniProt Q9DBJ3 | -0.0514 |
| UniProt Q9D6Z1 | 0.264 |
| UniProt Q9D7A8 | 0.0847 |
| UniProt Q9DBY1 | -0.0249 |
| UniProt Q9CYX7 | -0.0468 |
| UniProt Q9D8B4 | 0.325 |
| UniProt Q9D0I9 | 0.0313 |
| UniProt Q9D6M3 | -0.0776 |
| UniProt Q9DB77 | 0.0908 |
| UniProt Q9D404 | -0.0813 |
| UniProt Q9DBG5 | 0.0234 |
| UniProt Q9CYF5 | 0.00137 |
| UniProt Q9DB29 | -0.0446 |
| UniProt Q9DAK9 | 0.0988 |
| UniProt Q9D061 | -0.171 |
| UniProt Q9CY64 | -0.0156 |
| UniProt Q9D168 | 0.071 |
| UniProt Q9D6K7 | -0.15 |
